Source: the supplement of paper PMC10849652
This is one part of the list.

Protein sequences, listed by entry. Tags and fused reporters are not part of them. Lines headed by an entry give the natural chain unless they say otherwise; changes in a name come on top.
UniProt P57076: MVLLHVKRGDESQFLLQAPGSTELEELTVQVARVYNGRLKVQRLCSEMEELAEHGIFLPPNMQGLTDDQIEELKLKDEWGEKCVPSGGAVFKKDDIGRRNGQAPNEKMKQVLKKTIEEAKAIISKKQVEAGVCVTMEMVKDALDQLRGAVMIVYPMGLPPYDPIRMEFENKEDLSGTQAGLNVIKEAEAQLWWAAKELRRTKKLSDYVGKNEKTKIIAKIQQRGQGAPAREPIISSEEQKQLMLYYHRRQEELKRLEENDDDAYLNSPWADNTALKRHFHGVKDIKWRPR
UniProt Q53HL2: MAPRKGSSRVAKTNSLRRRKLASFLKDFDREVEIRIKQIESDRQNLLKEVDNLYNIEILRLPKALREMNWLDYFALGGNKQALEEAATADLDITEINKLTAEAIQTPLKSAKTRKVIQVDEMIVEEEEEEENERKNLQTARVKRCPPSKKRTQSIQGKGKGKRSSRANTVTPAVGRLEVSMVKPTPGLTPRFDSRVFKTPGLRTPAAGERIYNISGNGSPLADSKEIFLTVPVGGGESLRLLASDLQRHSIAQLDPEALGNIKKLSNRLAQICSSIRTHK
UniProt P49454: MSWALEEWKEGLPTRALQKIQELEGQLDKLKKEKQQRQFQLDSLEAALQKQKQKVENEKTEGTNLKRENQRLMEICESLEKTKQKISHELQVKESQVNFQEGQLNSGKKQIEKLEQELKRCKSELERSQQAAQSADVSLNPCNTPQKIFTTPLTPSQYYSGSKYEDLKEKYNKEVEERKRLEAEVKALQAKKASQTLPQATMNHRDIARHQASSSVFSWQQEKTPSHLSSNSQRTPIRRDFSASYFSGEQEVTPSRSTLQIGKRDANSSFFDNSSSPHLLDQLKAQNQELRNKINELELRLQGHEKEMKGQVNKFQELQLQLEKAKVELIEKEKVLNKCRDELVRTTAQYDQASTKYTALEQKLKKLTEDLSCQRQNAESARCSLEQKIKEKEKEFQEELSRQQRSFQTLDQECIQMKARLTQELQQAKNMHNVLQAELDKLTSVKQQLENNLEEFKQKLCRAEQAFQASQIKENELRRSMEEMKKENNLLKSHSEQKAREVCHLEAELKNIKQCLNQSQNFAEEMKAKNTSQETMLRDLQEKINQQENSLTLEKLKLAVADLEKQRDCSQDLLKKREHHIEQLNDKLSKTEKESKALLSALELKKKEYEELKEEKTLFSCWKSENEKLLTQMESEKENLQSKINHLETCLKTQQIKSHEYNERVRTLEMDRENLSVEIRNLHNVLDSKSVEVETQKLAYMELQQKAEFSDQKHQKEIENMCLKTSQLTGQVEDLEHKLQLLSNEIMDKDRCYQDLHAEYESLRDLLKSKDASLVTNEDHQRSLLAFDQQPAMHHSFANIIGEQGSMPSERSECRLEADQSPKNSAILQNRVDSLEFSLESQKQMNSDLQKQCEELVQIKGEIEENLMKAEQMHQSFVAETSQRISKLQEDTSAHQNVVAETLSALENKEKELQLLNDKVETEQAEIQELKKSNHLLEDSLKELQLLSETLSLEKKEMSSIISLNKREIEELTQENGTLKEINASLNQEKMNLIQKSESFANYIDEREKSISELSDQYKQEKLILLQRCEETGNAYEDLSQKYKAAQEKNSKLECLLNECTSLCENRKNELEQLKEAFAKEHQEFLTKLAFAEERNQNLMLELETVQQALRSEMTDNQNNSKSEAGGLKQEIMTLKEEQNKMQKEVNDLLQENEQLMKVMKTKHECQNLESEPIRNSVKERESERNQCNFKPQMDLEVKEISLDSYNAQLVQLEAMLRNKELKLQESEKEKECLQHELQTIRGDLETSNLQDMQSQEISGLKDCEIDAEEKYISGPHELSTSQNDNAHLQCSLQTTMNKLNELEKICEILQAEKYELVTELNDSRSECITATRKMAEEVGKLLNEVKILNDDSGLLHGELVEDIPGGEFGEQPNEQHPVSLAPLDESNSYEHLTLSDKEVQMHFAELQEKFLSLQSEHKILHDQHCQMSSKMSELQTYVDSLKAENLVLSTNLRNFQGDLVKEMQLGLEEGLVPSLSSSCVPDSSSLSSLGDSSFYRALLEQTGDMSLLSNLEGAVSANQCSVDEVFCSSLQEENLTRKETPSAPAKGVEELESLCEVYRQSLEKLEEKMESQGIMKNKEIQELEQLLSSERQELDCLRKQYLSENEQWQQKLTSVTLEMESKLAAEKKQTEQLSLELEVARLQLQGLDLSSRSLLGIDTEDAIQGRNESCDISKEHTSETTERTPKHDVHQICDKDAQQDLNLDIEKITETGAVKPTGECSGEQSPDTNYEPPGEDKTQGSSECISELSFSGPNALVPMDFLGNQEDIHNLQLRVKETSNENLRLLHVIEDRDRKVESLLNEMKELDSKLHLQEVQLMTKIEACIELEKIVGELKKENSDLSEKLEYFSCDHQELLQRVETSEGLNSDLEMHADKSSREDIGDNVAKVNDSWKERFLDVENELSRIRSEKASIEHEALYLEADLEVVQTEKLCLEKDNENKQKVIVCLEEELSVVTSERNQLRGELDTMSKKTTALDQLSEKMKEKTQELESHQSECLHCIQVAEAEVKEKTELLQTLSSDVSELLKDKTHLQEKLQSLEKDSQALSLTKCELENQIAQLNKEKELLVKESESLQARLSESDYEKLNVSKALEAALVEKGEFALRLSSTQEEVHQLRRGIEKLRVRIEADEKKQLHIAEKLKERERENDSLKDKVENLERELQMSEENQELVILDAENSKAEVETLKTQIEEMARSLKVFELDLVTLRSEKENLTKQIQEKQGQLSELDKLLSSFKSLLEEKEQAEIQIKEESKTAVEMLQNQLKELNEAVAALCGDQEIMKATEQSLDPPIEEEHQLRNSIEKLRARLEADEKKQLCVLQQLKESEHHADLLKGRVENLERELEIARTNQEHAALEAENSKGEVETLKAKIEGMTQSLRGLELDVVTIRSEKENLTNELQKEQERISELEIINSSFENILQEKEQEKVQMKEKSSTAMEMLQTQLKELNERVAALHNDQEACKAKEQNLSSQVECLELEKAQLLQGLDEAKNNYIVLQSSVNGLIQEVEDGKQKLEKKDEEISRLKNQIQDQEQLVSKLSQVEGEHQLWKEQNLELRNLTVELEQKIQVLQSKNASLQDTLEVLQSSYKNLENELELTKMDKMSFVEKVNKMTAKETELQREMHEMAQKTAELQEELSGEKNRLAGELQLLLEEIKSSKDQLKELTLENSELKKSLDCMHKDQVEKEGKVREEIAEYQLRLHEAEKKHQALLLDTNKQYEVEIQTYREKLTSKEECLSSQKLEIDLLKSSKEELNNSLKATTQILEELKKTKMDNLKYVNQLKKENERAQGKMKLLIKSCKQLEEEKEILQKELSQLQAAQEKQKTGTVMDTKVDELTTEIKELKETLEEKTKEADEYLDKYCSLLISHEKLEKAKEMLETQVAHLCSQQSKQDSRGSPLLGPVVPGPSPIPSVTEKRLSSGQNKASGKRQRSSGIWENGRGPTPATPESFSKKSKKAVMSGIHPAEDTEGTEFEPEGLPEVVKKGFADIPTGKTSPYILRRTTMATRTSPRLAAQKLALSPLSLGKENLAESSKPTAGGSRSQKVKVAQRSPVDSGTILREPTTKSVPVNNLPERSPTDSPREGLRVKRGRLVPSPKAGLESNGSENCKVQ
UniProt Q9UQN3, whole entry, looked up: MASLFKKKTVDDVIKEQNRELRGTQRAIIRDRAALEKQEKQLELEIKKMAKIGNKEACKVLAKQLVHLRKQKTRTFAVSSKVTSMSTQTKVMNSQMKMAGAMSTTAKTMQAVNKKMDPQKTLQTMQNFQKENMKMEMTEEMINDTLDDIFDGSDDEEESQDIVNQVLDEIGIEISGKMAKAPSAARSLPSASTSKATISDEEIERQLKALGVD
UniProt P50613: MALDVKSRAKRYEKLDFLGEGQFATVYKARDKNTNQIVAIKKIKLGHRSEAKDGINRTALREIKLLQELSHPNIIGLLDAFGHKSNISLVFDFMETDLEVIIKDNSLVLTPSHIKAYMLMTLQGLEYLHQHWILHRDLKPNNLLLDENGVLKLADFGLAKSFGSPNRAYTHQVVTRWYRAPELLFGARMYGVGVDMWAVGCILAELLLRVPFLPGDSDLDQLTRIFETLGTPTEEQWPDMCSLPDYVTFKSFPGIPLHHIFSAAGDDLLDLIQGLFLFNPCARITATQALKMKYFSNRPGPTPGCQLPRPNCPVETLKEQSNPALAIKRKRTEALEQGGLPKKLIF
UniProt Q8TAP6: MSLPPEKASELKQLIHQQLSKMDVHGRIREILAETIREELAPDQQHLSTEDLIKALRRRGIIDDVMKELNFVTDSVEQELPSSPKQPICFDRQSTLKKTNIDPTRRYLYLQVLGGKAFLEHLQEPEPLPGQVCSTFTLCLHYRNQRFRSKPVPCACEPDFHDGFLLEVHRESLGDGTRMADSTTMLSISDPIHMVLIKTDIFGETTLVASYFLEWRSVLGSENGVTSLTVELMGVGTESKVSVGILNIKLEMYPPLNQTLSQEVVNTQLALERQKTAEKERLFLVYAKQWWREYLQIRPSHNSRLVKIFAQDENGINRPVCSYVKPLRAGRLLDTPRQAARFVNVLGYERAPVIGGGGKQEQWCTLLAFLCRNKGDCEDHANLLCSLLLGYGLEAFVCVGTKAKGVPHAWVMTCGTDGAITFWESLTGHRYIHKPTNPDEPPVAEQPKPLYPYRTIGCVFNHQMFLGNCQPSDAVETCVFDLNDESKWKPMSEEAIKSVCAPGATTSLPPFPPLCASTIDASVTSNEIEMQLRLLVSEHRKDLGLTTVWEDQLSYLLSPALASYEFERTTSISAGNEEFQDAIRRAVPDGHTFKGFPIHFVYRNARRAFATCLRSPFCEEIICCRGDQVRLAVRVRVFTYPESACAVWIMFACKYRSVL
UniProt Q9HD42: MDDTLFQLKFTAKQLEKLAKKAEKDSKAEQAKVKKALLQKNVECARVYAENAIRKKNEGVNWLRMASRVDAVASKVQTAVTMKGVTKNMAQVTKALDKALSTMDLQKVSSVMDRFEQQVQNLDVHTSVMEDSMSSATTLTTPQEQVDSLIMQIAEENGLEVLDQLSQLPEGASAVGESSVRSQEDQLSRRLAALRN
UniProt Q9NZZ3: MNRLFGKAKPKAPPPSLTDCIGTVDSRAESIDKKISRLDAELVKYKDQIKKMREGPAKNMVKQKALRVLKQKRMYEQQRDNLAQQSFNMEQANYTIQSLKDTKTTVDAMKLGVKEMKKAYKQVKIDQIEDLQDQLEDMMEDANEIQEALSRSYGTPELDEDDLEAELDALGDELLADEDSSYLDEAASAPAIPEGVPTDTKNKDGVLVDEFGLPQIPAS
UniProt Q96FF9: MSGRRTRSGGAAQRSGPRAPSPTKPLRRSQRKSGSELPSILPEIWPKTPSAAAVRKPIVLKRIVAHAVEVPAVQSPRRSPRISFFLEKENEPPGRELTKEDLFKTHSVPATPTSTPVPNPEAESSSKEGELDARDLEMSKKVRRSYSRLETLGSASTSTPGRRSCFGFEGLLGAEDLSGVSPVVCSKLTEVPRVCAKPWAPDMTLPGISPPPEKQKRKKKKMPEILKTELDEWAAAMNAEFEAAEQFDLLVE
UniProt Q9UFW8: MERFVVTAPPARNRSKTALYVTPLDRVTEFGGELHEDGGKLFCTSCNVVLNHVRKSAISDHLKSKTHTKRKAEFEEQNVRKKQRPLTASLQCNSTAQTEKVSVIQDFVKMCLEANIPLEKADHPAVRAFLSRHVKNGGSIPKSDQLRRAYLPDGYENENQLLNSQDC
UniProt Q9Y259: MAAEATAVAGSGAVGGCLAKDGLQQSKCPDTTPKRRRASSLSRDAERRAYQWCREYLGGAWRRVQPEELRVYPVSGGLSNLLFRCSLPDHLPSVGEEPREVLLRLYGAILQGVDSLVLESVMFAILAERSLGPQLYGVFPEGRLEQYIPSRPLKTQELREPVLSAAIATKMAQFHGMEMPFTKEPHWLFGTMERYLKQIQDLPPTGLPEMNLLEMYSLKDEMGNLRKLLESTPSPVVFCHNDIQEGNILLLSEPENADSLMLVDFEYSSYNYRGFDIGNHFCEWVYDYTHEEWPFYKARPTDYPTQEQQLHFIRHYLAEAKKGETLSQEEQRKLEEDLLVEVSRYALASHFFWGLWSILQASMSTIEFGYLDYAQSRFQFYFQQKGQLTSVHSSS
UniProt Q9UEE9, whole entry, looked up: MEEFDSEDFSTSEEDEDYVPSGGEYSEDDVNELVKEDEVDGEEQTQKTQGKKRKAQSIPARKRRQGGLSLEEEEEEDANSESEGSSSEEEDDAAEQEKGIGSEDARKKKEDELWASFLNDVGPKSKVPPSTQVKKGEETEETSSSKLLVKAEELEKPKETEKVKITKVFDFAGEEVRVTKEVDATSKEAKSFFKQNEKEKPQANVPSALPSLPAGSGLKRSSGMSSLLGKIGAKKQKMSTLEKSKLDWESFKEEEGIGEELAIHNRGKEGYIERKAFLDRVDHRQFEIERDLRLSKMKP

Experiments:
Assay in all cases: log2 fold change, soluble protein after heating vs DMSO (PISA); higher = thermal stabilisation; K562 cells, 10 uM, 30 min; active = over 0.2 and 3.5 SD of the protein, either way, in both replicates (recomputed)
[1] = compound: CC1=C(C=C(C=C1)NC(=O)C2=CC(=CC=C2)C(C)(C)C#N)NC3=CC4=C(C=C3)N=CN(C4=O)C
In short: (§1)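 Soluble protein was quantified by TMTpro 16plex LC-MS/MS after channel sums were equalised. It was obtained as the supernatant after 21,000xg for 90 min from pooled aliquots of K562 cells (2×10^6 cells/mL, 10 μM compound, 30 min) heated for 3 min across 48°C-58°C and extracted in PBS with 0.5% NP-40 at 4°C. Thermal stability values are relative to control samples and come from duplicates. They are given as log2 fold changes.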

[2] = compound: CC1=C(C=C(C=C1)NC(=O)C2=CC(=CC=C2)N(C)C)NC(=O)C3=CC=C(C=C3)O
In short: as §1

[3] = compound: CC1=CC=C(C=C1)SC2=C3C=C(SC3=CN=C2)C(=O)N
In short: as §1

[4] = compound: CC1=NC(=CC=C1)C2=C(N=C(N2)C(C)(C)C)C3=CC4=NC=CN=C4C=C3
In short: as §1

Nexturastat A = compound: CCCCN(Cc1ccc(C(=O)NO)cc1)C(=O)Nc1ccccc1 [Nexturastat A]
In short: as §1

vemurafenib = compound: CCCS(=O)(=O)Nc1ccc(F)c(C(=O)c2c[nH]c3ncc(-c4ccc(Cl)cc4)cc23)c1F [vemurafenib]
In short: as §1

[5] = compound: CCCS(=O)(=O)Nc1ccc(F)c(C(=O)c2c[nH]c3ncc(Cl)cc23)c1F
In short: as §1

[6] = compound: CCCc1cc(C)[nH]c(=O)c1CNC(=O)c1cc(-c2ccnc(N3CCN(C)CC3)c2)cc2c1cnn2C(C)C
In short: as §1

givinostat = compound: CCN(CC)Cc1ccc2cc(COC(=O)Nc3ccc(C(=O)NO)cc3)ccc2c1 [givinostat]
In short: as §1

barasertib = compound: CCN(CCCOc1ccc2c(Nc3cc(CC(=O)Nc4cccc(F)c4)[nH]n3)ncnc2c1)CCOP(=O)(O)O [barasertib]
In short: as §1

[7] = compound: CC[C@@H]1C(=O)N(C)c2cnc(Nc3ccc(C(=O)NC4CCN(C)CC4)cc3OC)nc2N1C1CCCC1
In short: as §1

volasertib = compound: CC[C@@H]1C(=O)N(C)c2cnc(Nc3ccc(C(=O)N[C@H]4CC[C@H](N5CCN(CC6CC6)CC5)CC4)cc3OC)nc2N1C(C)C [volasertib]
In short: as §1

[8] = compound: CC[C@H](C)N1C=C(C2=C(C=C(C=C21)C3=CN=C(C=C3)N4CCNCC4)C(=O)NCC5=C(C=C(NC5=O)C)C)C
In short: as §1

epoxomicin = compound: CC[C@H](C)[C@@H](C(=O)N[C@@H]([C@@H](C)O)C(=O)N[C@@H](CC(C)C)C(=O)[C@]1(CO1)C)NC(=O)[C@H]([C@@H](C)CC)N(C)C(=O)C [epoxomicin]
In short: as §1

[9] = compound: CCn1c(C(=O)N(C2CC2)C2CC2)cc2c3c(ncn3C)c(Nc3cc(C)n(C)n3)nc21
In short: as §1

[10] = compound: CCn1cc(-c2ccnc3[nH]c(-c4cccc(CN(C)C)c4)cc23)c(-c2ccc(NC(=O)N(C)C)cc2)n1
In short: as §1

[11] = compound: CN(C)CC(=O)Nc1ccc2[nH]c(=O)c3ccccc3c2c1
In short: as §1

rosiglitazone = compound: CN(CCOC1=CC=C(C=C1)C[C@H]2C(=O)NC(=O)S2)C3=CC=CC=N3 (racemic) [rosiglitazone]
In short: as §1

[12] = compound: CN1C2=C(C3=C1C(=O)N(N=C3)CC4=CC(=CC=C4)N)SC(=C2)S(=O)C
In short: as §1

[13] = compound: CN1CCC(CNc2ccc3ncc(-c4cccc(OC(F)(F)F)c4)n3n2)CC1
In short: as §1

Measured: log2 fold change

CHEK2 isoform 9 (UniProt O96017)
inactive: [1] -0.006 | [2] -0.001 | [3] -0.011 | [4] -0.014 | Nexturastat A -0.079 | vemurafenib -0.033 | [5] -0.021 | [6] -0.015 | givinostat -0.019 | barasertib 0.05 | [7] -0.023 | volasertib -0.075 | [8] 0.016 | epoxomicin 0.093 | [9] 0.004 | [10] -0.05 | [11] -0.027 | rosiglitazone 0.069 | [12] -0.038 | [13] 0.004

CFAP298 (UniProt P57076)
inactive: [1] -0.09 | [2] 0.053 | [3] -0.167 | [4] -0.097 | Nexturastat A 0.203 | vemurafenib -0.031 | [5] 0.093 | [6] 0.095 | givinostat 0.174 | barasertib 0.214 | [7] 0.151 | volasertib -0.58 | [8] -0.179 | epoxomicin 0.115 | [9] -0.072 | [10] -0.027 | [11] 0.044 | rosiglitazone 0.094 | [12] 0.37 | [13] -0.068

CDCA8 (UniProt Q53HL2)
inactive: [1] -0.201 | [2] 0.011

CERS5 (UniProt Q8N5B7)
inactive: [1] -0.193 | [2] -0.043 | [3] 0.053 | [4] 0.005 | Nexturastat A -0.004 | vemurafenib -0.004 | [5] 0.016 | [6] 0.002 | givinostat -0.022 | barasertib -0.049 | [7] 0.06 | volasertib -0.014 | [8] 0.007 | epoxomicin -0.005 | [9] 0.073 | [10] -0.11 | [11] -0.035 | rosiglitazone 0.047 | [12] -0.048 | [13] -0.241

CENPF (UniProt P49454)
inactive: [1] -0.067 | [2] 0.017 | [3] -0.06 | [4] -0.08 | Nexturastat A 0.05 | vemurafenib -0.037 | [5] -0.047 | [6] 0.043 | givinostat -0.011 | barasertib -0.103 | [7] 0.075 | volasertib 0.009 | [8] -0.003 | epoxomicin -0.008 | [9] 0.048 | [10] 0.041 | [11] -0.046 | rosiglitazone -0.058 | [12] 0.053 | [13] 0.076

CELF1 isoform 4 (UniProt Q92879)
inactive: [1] 0.12 | [2] -0.046 | [3] 0.048 | [4] 0.062 | Nexturastat A 0.007 | vemurafenib 0.087 | [5] 0.088 | [6] 0.13 | givinostat 0.078 | barasertib 0.074 | [7] -0.088 | volasertib -0.345 | [8] 0.171 | epoxomicin 0.003 | [9] -0.144 | [10] -0.062 | [11] 0.118 | rosiglitazone 0.082 | [12] -0.039 | [13] -0.032

2 records drawn at random from the list so far:
CENPF (UniProt P49454)
inactive: [1] -0.067 | [2] 0.017 | [3] -0.06 | [4] -0.08 | Nexturastat A 0.05 | vemurafenib -0.037 | [5] -0.047 | [6] 0.043 | givinostat -0.011 | barasertib -0.103 | [7] 0.075 | volasertib 0.009 | [8] -0.003 | epoxomicin -0.008 | [9] 0.048 | [10] 0.041 | [11] -0.046 | rosiglitazone -0.058 | [12] 0.053 | [13] 0.076

CFAP298 (UniProt P57076)
inactive: [1] -0.09 | [2] 0.053 | [3] -0.167 | [4] -0.097 | Nexturastat A 0.203 | vemurafenib -0.031 | [5] 0.093 | [6] 0.095 | givinostat 0.174 | barasertib 0.214 | [7] 0.151 | volasertib -0.58 | [8] -0.179 | epoxomicin 0.115 | [9] -0.072 | [10] -0.027 | [11] 0.044 | rosiglitazone 0.094 | [12] 0.37 | [13] -0.068

The results go on:

CHMP2B (UniProt Q9UQN3)
inactive: [1] -0.032 | [2] 0.016 | [3] 0.028 | [4] 0.055 | Nexturastat A -0.026 | vemurafenib 0.011 | [5] 0.061 | [6] -0.017 | givinostat 0.001 | barasertib 0.012 | [7] -0.19 | volasertib -0.102 | [8] -0.022 | epoxomicin 0.034 | [9] 0.057 | [10] -0.003 | [11] -0.03 | rosiglitazone -0.011 | [12] -0.013 | [13] -0.082

CDK7 (UniProt P50613)
inactive: [1] -0.018 | [2] 0.012 | [3] 0.013 | [4] 0.034 | Nexturastat A 0.021 | vemurafenib 0.01 | [5] 0 | [6] -0.034 | givinostat 0.004 | barasertib 0.004 | [7] 0.026 | volasertib -0.099 | [8] -0.023 | epoxomicin 0.04 | [9] -0.028 | [10] 0.058 | [11] -0.026 | rosiglitazone 0.005 | [12] -0.032 | [13] -0.026

CDKAL1 (UniProt Q5VV42)
inactive: [1] 0.007 | [2] -0.059 | [3] -0.016 | [4] 0 | Nexturastat A 0.035 | vemurafenib 0.022 | [5] 0.002 | [6] -0.012 | givinostat -0.117 | barasertib -0.004 | [7] 0.1 | volasertib 0.039 | [8] 0.046 | epoxomicin -0.02 | [9] -0.021 | [10] -0.036 | [11] 0.02 | rosiglitazone 0.071 | [12] -0.014 | [13] -0.01

CEP76 (UniProt Q8TAP6)
inactive: [1] 0.018 | [2] -0.044 | [3] -0.036 | [4] -0.012 | Nexturastat A 0.018 | vemurafenib -0.029 | [5] -0.101 | [6] -0.036 | givinostat -0.01 | barasertib -0.011 | [7] 0.043 | volasertib -0.04 | [8] -0.019 | epoxomicin -0.031 | [9] 0.003 | [10] -0.044 | [11] 0.035 | rosiglitazone 0.003 | [12] 0.005 | [13] 0.019

CDK2 (UniProt P24941)
inactive: [1] -0.012 | [2] -0.005 | [3] -0.009 | [4] 0.029 | Nexturastat A -0.062 | vemurafenib -0.008 | [5] 0.005 | [6] -0.069 | givinostat 0.038 | barasertib -0.007 | [7] 0.009 | volasertib -0.047 | [8] 0.027 | epoxomicin 0.002 | [9] 0.012 | [10] -0.047 | [11] -0.005 | rosiglitazone 0.038 | [12] -0.058 | [13] 0.018

CHMP1A (UniProt Q9HD42)
inactive: [1] -0.01 | [2] 0.032 | [3] 0.02 | [4] 0.023 | Nexturastat A -0.042 | vemurafenib -0.015 | [5] -0.007 | [6] -0.05 | givinostat -0.016 | barasertib 0.025 | [7] -0.184 | volasertib -0.084 | [8] 0.009 | epoxomicin 0.03 | [9] 0.048 | [10] -0.005 | [11] -0.024 | rosiglitazone -0.02 | [12] -0.08 | [13] -0.134

CHMP5 (UniProt Q9NZZ3)
inactive: [1] -0.04 | [2] -0.009 | [3] -0.056 | [4] 0.032 | Nexturastat A -0.101 | vemurafenib -0.013 | [5] -0.012 | [6] -0.04 | givinostat -0.02 | barasertib 0.007 | [7] -0.077 | volasertib 0.018 | [8] -0.009 | epoxomicin -0.006 | [9] 0.016 | [10] 0.008 | [11] -0.029 | rosiglitazone -0.059 | [12] -0.014 | [13] -0.104

CDCA5 (UniProt Q96FF9)
inactive: [1] -0.048 | [2] 0.149 | [3] -0.066 | [4] -0.286 | Nexturastat A -0.015 | vemurafenib 0.072 | [5] -0.048 | [6] 0.009 | givinostat 0.108 | barasertib 0.001 | [7] 0.121 | volasertib -0.036 | [8] 0.091 | epoxomicin 0.047 | [9] 0.037 | [10] 0.005 | [11] 0.041 | rosiglitazone 0 | [12] -0.113 | [13] 0.021

CGGBP1 (UniProt Q9UFW8)
inactive: [1] 0.001 | [2] 0.031 | [3] -0.016 | [4] 0.011 | Nexturastat A 0.055 | vemurafenib 0.03 | [5] -0.017 | [6] -0.06 | givinostat 0.064 | barasertib 0 | [7] 0.017 | volasertib 0.061 | [8] 0.025 | epoxomicin 0.012 | [9] -0.007 | [10] 0.004 | [11] -0.059 | rosiglitazone -0.011 | [12] 0.021 | [13] 0.028

CHKB (UniProt Q9Y259)
inactive: [1] -0.159 | [2] -0.003 | [3] -0.01 | [4] 0.029 | Nexturastat A -0.04 | vemurafenib 0.145 | [5] -0.011 | [6] 0.023 | givinostat 0.051 | barasertib 0.28 | [7] 0.022 | volasertib 0.066 | [8] 0.082 | epoxomicin 0.004 | [9] 0.032 | [10] -0.072 | [11] 0.02 | rosiglitazone -0.075 | [12] 0.014 | [13] 0.255

CFDP1 (UniProt Q9UEE9)
inactive: [1] -0.045 | [2] 0.01 | [3] 0.018 | [4] 0.026 | Nexturastat A -0.016 | vemurafenib -0.015 | [5] -0.013 | [6] -0.094 | givinostat 0.013 | barasertib -0.005 | [7] 0.034 | volasertib 0.076 | [8] -0.04 | epoxomicin 0.031 | [9] 0.015 | [10] -0.019 | [11] -0.026 | rosiglitazone -0.004 | [12] -0.022 | [13] 0.001
